Assay [1] deals with IFI16 (human (endogenous in AB8/13 podocytes)) (UniProt Q16666). The assay is described as follows: co-IP; nuclear lysates of AB8/13 podocytes untreated (DMSO) or treated with 100 µM roxadustat for 4 h; Nuclear Complex Co-IP Kit (Active Motif); anti-HIF-1α, anti-IFI16 or control IgG overnight at 4 °C, protein A/G plus agarose beads; 500 µg immunoprecipitated, immunoblot.
For assay [2], the target named is hypoxia-inducible factor (HIF)-1α (human (endogenous in AB8/13 podocytes)) (UniProt Q16665). The assay is described as above.
Assay [3] has as its target T1, hypoxia-inducible factor (HIF)-1α (human (endogenous in AB8/13 podocytes)), Q16665. In words: co-IP; nuclear fraction of AB8/13 podocytes, anti-HIF-1α precipitates, low-stringency buffers. The note with it: remark: other sources report otherwise.
The target of assay [4] is T1, hypoxia-inducible factor (HIF)-1α …. The assay is described as follows: co-IP; nuclear lysates of AB8/13 podocytes untreated (DMSO) or treated with 100 µM roxadustat for 4 h; Nuclear Complex Co-IP Kit (Active Motif); anti-HIF-1α, anti-IFI16 or control IgG overnight at 4 °C, protein A/G plus agarose beads; 500 µg immunoprecipitated, immunoblot. The note with it: remark: other sources report otherwise.

Sequences of proteins named here, by UniProt entry; tags and fusion partners are left off.
UniProt Q16665: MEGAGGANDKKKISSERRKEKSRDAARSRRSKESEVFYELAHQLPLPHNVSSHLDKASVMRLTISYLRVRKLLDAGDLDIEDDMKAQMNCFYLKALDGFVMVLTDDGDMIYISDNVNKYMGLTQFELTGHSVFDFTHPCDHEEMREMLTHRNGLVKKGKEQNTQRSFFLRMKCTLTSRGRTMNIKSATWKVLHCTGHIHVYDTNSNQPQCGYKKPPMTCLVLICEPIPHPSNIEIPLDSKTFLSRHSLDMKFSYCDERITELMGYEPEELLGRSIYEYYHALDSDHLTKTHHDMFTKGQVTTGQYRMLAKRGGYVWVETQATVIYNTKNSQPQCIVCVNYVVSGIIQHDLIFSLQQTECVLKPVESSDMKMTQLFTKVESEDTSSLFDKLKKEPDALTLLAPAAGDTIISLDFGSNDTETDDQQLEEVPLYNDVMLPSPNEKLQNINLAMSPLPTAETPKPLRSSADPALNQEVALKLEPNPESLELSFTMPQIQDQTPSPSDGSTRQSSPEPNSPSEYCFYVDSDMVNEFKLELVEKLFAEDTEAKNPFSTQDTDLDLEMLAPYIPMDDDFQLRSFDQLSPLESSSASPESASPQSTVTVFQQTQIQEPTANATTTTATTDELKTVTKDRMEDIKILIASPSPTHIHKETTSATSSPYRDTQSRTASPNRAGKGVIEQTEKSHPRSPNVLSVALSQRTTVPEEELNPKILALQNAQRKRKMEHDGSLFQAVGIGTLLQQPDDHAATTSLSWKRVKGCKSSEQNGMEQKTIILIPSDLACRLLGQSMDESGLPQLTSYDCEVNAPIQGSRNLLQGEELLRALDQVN
UniProt P27540: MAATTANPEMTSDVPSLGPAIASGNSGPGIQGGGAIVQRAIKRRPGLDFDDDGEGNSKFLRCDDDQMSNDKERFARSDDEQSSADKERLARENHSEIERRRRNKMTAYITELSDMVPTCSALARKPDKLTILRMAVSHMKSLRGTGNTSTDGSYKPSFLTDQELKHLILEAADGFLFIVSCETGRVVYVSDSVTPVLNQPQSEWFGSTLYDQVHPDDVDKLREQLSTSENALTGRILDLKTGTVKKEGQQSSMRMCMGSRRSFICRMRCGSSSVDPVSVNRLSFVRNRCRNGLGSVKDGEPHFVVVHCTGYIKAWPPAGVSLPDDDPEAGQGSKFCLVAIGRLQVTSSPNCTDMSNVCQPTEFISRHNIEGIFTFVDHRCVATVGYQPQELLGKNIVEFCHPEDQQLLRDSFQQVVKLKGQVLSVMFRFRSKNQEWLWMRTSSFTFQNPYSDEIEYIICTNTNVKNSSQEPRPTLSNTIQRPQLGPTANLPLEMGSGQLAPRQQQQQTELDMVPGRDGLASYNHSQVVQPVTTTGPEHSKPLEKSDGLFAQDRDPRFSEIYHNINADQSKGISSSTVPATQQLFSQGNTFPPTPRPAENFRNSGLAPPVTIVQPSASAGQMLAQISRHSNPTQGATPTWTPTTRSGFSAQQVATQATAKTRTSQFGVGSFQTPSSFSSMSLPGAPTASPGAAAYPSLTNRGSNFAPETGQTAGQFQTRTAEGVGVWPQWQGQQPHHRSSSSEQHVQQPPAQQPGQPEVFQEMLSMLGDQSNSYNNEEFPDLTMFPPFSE
UniProt P20700: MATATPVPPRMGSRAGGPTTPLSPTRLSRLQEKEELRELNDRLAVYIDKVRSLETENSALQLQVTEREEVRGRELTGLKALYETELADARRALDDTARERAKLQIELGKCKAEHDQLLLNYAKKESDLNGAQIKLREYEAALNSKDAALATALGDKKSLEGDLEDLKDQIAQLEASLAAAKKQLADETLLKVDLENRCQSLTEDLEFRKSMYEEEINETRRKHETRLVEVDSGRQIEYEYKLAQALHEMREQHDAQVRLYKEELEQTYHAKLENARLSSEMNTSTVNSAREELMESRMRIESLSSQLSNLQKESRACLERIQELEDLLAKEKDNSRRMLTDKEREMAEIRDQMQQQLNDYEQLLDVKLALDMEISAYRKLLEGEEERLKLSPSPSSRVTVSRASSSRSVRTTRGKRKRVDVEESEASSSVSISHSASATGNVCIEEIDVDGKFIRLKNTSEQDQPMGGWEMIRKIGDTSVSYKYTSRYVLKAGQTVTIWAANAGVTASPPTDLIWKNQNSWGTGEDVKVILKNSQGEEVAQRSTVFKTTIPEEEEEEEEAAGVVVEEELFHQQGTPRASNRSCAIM

These are yes or no findings as the source states them, for the method shown. Binding seen in cells or lysates may run through a third protein.

Turning to HIF-1β (from UniProt P27540 1-789), in assay [1], the binding entry is on record as “no binding”. As to lamin B1 (from UniProt P20700 1-586), in assay [2], the binding entry is listed as “no binding”.

B1: IFI16, Q16666 1-785 (protein)
chain: MGKKYKNIVLLKGLEVINDYHFRMVKSLLSNDLKLNLKMREEYDKIQIADLMEEKFRGDAGLGKLIKIFEDIPTLEDLAETLKKEKLKVKGPALSRKRKKEVDATSPAPSTSSTVKTEGAEATPGAQKRKKSTKEKAGPKGSKVSEEQTQPPSPAGAGMSTAMGRSPSPKTSLSAPPNSSSTENPKTVAKCQVTPRRNVLQKRPVIVKVLSTTKPFEYETPEMEKKIMFHATVATQTQFFHVKVLNTSLKEKFNGKKIIIISDYLEYDSLLEVNEESTVSEAGPNQTFEVPNKIINRAKETLKIDILHKQASGNIVYGVFMLHKKTVNQKTTIYEIQDDRGKMDVVGTGQCHNIPCEEGDKLQLFCFRLRKKNQMSKLISEMHSFIQIKKKTNPRNNDPKSMKLPQEQRQLPYPSEASTTFPESHLRTPQMPPTTPSSSFFTKKSEDTISKMNDFMRMQILKEGSHFPGPFMTSIGPAESHPHTPQMPPSTPSSSFLTTKSEDTISKMNDFMRMQILKEGSHFPGPFMTSIGPAESHPHTPQMPPSTPSSSFLTTLKPRLKTEPEEVSIEDSAQSDLKEVMVLNATESFVYEPKEQKKMFHATVATENEVFRVKVFNIDLKEKFTPKKIIAIANYVCRNGFLEVYPFTLVADVNADRNMEIPKGLIRSASVTPKINQLCSQTKGSFVNGVFEVHKKNVRGEFTYYEIQDNTGKMEVVVHGRLTTINCEEGDKLKLTCFELAPKSGNTGELRSVIHSHIKVIKTRKNKKDILNPDSSMETSPDFFF
Take B1: the binding entry in assay [3] and in assay [4] was “no binding” each time.

The record behind these values is article PMC10970439.
